Source: patent US10273208B2, “Screening methods for the binding affinity of chemical entities to biological molecules and NEDD4-1 inhibitors identified by the screening methods” (Northwestern University, priority 2014, dated 2019)

System: NEDD4-1 HECT domain
Experiment: Covalent labeling of NEDD4-1 HECT domain (gel filtration, whole protein ESI-MS)
Assay type: binding, human
Conditions: NEDD4-1 HECT mutants 10 μM, 4 h; 1, 2 at 100 μM, 3 at 1 mM
Procedure: 10 μM of NEDD4-1 HECT domain in 50 mM HEPES 150 mM NaCl 0.1 mM EDTA 1 mM DTT pH 7.5 was treated with a mixture of ten fragments (from 10 mM each DMSO stock solution mixtures; final concentrations: 100 μM of each fragment, and 1% DMSO). Fragment structures and mixture compositions were the same as reported previously. The reaction mixture was incubated for 4 h at 23° C. before being passed through Zeba gel filtration columns (Thermo, 7K MWCO) to remove unreacted fragments. The protein solution was then immediately analyzed by whole protein LC/ESI-MS.
Accurate-mass data were obtained on an Agilent 6210A LC-TOF mass spectrometer in positive ion mode using electrospray ionization. Samples were chromatographed on the LC-TOF instrument using a Poroshell 120 EC-C18 HPLC column (2.1*50 mm, 2.7 micron), an Agilent Series 1200 HPLC binary pump, and an Agilent Series 1200 autoinjector. The HPLC column was held at 45° C. and the autosampler was held at 8° C. Mobile Phase A was a solution of 0.1% formic acid in water:acetonitrile (19:1). Mobile Phase B was a solution of 0.1% formic acid in acetonitrile. The flow rate was set to 250 μL/min. The gradient used was 0% B for 2 minutes, ramping linearly to 90% B from 2 minutes to 5 minutes, holding at 90% B from 5 minutes to 7 minutes, and then returning to 0% B at 7.1 minutes. […]

| Structure (SMILES) | cysteine of NEDD4-1 modified (Cys to Ala point mutants) |
| --- | --- |
| COC(=O)/C=C/CNC(=O)c1c(C)n(C)c2ccc(OC)cc12 [Compound 1, Methyl(E)-4-(5-methoxy-1,2-dimethyl-1H-indole-3-carboxamido)but-2-enoate] | selectively react with the non-catalytic Cys^627 |
| COC(=O)/C=C/CNC(C)=O [Compound 3, methyl (E)-4-acetamidobut-2-enoate] | catalytic Cys^867 of NEDD4-1 was more reactive than Cys^627 |
